These are yes or no findings as the source states them, for the method shown. In cells and extracts the contact can be indirect. Some results given as binding are weak or reduced against the parent protein; the word gives no strength.
Molecular target: serine/threonine protein kinase ARAF (v-raf murine sarcoma 3611 viral oncogene homolog) (human (endogenous in liver cancer cells)) (UniProt P10398)
Assay: co-IP; co-immunoprecipitation with anti-ARAF, Western blot; liver cancer cells of the rLV group and the rLV-CARM1 (CARM1 overexpressing) group compared

Chains of the proteins cited; added tags and fusions are not shown.
UniProt Q13185: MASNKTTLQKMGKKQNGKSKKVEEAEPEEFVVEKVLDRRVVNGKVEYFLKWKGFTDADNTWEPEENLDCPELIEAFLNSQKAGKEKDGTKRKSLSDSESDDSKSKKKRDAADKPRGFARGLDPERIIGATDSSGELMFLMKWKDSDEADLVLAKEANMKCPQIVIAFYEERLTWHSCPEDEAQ
UniProt P38936: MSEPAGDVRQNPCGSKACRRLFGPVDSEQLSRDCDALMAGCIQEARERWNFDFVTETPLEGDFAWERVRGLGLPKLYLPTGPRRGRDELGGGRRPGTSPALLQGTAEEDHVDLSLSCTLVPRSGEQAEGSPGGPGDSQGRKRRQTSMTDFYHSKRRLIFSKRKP
UniProt Q15796: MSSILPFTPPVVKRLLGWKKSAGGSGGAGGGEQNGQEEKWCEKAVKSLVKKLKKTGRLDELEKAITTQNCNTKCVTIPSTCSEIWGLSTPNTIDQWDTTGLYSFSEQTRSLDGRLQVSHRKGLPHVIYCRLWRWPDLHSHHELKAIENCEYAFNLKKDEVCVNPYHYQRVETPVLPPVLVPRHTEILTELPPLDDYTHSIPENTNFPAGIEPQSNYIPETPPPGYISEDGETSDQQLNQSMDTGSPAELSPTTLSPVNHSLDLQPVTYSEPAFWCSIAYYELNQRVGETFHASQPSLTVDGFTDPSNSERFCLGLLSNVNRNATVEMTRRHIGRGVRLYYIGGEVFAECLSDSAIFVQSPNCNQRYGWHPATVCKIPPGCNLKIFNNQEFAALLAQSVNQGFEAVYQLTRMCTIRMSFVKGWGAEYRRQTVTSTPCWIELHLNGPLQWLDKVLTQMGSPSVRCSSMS
UniProt P13010: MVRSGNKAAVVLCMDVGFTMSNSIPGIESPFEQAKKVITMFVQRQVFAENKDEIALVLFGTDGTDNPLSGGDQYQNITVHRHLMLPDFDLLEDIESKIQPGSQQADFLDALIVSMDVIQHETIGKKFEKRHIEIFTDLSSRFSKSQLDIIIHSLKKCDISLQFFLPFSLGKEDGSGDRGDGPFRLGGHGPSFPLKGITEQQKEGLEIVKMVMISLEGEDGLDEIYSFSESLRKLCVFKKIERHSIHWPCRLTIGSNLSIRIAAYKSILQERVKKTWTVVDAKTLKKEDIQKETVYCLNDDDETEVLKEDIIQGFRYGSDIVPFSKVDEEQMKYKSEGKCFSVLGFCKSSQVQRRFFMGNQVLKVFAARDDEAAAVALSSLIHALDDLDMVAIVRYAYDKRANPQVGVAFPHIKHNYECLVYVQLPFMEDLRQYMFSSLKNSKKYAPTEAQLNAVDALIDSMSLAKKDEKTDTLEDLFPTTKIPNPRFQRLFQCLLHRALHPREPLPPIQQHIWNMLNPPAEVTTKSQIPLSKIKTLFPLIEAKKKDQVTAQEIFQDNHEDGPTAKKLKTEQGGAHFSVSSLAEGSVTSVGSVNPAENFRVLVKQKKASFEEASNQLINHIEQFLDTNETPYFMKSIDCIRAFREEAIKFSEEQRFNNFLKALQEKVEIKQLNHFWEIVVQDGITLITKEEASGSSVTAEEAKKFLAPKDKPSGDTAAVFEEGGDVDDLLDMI
UniProt Q15915: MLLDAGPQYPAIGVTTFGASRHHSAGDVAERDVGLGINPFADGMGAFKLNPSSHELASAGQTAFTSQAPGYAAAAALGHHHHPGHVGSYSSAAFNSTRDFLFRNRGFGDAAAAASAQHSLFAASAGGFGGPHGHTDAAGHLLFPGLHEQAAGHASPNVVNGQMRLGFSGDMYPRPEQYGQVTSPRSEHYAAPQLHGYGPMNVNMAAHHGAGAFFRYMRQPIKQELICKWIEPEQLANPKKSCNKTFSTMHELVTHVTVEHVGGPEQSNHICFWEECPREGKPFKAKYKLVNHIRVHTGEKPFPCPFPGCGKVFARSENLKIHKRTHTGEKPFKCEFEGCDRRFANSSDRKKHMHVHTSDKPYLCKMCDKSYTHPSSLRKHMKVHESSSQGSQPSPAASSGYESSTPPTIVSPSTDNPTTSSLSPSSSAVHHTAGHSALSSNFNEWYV

binding, binds:
CBX3 (from UniProt Q13185 1-183)
P21WAF1/Cip1 (from UniProt P38936 1-164)
SMAD2 (from UniProt Q15796 1-467)
XRCC5 (from UniProt P13010 1-732)
ZIC1 (from UniProt Q15915 1-447)

— PMC11480952
